Measurements as given in publication PMC5233611.
No constants are given. Whether binding was seen depends on the method and setting. In cells and extracts the contact can be indirect. Some binding calls cover weakened binding; strength is not graded here. One block for each substance: values may come before it.

Protein sequences, listed by entry. Tags and fused reporters are not part of them.
UniProt Q5S007: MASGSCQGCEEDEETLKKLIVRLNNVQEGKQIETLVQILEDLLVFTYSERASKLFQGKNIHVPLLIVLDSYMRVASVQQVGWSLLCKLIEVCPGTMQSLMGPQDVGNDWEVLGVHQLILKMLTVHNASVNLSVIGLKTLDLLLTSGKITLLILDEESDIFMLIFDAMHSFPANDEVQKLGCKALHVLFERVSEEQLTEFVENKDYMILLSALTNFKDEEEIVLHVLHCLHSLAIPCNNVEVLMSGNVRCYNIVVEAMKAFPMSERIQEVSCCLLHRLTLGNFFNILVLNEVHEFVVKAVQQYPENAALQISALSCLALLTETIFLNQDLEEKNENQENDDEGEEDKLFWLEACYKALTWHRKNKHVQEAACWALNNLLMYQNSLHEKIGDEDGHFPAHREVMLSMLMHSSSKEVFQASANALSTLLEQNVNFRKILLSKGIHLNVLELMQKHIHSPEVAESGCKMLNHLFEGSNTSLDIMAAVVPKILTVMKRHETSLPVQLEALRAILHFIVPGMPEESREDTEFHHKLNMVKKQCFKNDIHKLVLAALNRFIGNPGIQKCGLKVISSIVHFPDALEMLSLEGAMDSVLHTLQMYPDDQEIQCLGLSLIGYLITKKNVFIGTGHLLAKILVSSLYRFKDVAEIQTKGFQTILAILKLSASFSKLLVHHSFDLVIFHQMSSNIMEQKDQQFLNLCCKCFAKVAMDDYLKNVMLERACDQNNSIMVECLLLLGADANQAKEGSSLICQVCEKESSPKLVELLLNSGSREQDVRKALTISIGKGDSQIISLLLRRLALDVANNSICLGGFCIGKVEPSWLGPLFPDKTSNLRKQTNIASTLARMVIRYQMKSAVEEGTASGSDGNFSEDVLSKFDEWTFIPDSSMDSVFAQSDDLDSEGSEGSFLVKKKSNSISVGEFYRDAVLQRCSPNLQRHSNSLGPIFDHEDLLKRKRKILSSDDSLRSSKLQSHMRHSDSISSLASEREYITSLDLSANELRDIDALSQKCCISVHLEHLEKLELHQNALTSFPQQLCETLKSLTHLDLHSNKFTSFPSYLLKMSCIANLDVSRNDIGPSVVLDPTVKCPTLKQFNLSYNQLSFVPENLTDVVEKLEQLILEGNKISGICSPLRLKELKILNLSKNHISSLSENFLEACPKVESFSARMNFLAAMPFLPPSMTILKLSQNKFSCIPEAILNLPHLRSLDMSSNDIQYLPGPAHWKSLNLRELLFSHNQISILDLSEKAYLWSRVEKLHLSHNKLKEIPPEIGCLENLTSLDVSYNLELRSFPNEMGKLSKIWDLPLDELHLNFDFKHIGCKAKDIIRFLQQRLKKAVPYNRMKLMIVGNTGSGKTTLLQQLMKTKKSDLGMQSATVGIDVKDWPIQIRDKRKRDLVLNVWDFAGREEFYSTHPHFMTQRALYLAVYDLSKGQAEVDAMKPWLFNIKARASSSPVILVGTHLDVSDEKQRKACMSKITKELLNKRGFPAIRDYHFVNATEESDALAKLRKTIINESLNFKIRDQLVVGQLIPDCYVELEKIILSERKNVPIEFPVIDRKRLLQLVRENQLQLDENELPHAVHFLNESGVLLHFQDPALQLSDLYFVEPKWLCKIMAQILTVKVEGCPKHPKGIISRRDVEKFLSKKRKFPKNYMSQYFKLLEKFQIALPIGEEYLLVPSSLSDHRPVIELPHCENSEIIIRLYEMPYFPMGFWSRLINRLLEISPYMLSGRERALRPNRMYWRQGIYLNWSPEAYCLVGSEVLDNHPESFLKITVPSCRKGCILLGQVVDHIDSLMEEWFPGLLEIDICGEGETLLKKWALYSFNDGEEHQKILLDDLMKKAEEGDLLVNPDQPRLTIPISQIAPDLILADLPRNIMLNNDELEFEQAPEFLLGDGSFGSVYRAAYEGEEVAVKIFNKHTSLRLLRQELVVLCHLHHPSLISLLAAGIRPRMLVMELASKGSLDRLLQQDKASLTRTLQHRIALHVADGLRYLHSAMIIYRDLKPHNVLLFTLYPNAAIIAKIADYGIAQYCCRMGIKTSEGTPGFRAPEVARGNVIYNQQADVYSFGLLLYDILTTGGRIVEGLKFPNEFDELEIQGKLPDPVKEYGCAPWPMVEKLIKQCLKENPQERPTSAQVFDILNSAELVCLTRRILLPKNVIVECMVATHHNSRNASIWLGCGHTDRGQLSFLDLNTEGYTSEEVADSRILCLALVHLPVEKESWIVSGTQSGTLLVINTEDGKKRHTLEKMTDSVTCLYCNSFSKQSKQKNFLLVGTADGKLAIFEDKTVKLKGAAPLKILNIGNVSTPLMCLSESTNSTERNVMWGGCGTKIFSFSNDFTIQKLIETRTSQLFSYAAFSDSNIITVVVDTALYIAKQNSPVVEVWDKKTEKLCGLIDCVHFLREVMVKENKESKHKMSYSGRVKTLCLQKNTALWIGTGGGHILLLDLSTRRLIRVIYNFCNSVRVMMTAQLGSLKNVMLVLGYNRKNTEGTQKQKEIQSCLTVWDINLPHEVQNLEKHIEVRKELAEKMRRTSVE
UniProt O43353: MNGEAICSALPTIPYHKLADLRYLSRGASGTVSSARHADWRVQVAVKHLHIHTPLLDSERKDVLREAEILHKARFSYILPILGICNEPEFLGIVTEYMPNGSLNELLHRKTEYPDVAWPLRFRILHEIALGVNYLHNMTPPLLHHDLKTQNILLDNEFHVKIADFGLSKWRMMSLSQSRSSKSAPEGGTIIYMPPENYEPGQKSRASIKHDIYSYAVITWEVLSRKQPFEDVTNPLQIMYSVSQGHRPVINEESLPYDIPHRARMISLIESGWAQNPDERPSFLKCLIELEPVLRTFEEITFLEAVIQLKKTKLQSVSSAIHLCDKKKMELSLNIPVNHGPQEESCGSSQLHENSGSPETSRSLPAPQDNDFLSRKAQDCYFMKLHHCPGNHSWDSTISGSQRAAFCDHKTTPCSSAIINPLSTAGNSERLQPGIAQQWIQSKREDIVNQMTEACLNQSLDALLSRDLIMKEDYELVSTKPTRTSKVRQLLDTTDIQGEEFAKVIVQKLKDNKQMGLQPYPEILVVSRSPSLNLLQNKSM

Assays:
[1] = molecular target: Myc-tagged human LRRK2 (human) (UniProt Q5S007); assay: co-IP; tagged LRRK2 and Rip2 overexpressed in HEK293T cells; lysate in IP buffer (50 mM Tris-HCl pH 7.4, 150 mmol/L NaCl, 1% NP-40, 2 mmol/L EDTA); immunoprecipitated with anti-Myc or anti-GFP beads, 4°C; immunoblot
[2] = molecular target: Human Rip2 in pEGFP-N1 vector (GFP-tagged Rip2) (human) (UniProt O43353); assay: as above
[3] = molecular target: endogenous LRRK2 (THP-1 cells) (human (endogenous in THP-1)) (UniProt Q5S007); assay: co-IP; endogenous proteins in THP-1 cells, mock-treated or treated with 5 ng/mL LPS and 10 μg/mL MDP for 4 h; immunoprecipitated with anti-LRRK2 antibody, Rip2 immunoblotted; IP buffer (50 mM Tris-HCl pH 7.4, 150 mmol/L NaCl, 1% NP-40, 2 mmol/L EDTA), 4°C

- binding [1]: binds
Substance: Human Rip2 in pEGFP-N1 vector (GFP-tagged Rip2) (from UniProt O43353 1-540)

- binding [2]: binds
Substance: Myc-tagged human LRRK2 (from UniProt Q5S007 1-2527)

- binding [3]: binds
Substance: endogenous Rip2 (THP-1 cells) (from UniProt O43353 1-540)
